The record followed here is PMC4493090.

By UniProt entry, the sequences of proteins in these tests, tags left out. Where a name states a change or a piece, a line headed by the entry shows the natural chain unless it says otherwise. Chains listed by the source or under a name are the forms on record and can include a tag or linker. Residues count along the entry.
UniProt Q8C863: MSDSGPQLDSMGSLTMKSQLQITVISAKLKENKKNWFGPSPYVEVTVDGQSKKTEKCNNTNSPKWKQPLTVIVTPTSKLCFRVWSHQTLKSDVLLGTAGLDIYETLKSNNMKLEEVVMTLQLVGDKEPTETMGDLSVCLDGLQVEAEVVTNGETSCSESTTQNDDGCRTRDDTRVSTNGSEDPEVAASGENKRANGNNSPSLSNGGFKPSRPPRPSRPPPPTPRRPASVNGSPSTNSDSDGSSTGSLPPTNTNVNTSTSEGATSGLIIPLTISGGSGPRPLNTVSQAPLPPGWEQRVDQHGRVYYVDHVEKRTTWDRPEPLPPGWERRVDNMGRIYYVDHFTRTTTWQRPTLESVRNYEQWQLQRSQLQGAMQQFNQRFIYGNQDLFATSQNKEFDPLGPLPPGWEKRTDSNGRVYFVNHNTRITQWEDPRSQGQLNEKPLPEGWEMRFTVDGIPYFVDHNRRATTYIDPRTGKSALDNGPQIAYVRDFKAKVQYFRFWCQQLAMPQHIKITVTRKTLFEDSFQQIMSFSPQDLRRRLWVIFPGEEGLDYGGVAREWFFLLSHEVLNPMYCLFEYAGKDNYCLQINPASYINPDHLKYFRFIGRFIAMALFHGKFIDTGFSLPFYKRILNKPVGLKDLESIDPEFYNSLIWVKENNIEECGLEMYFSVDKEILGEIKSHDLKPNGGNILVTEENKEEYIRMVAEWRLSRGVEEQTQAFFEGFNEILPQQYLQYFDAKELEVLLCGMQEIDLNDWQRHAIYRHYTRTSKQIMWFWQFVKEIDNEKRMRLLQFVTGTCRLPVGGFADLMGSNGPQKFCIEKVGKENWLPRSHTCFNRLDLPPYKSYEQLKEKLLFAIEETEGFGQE
Itch-Δ-HECT (aa 1–477): residues 1-477 of Q8C863
Itch-Δ-C2 (aa 274–806): residues 274-806 of Q8C863
Myc-tagged WW-domains of Itch (aa 274–477): residues 274-477 of Q8C863
Myc-tagged WW-domains of NEDD4 (P46935, residues 238-497): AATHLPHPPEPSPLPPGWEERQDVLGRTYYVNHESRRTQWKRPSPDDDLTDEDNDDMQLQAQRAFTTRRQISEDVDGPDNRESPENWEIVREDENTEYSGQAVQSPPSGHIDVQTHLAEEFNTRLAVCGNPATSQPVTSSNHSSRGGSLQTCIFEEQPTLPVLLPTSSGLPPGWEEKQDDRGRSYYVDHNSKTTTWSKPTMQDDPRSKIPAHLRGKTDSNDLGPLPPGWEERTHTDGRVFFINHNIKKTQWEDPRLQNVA
Nedd4 (393–444), two-hybrid prey (P46935, residues 393-444): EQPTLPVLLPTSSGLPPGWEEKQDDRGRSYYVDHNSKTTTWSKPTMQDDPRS
UniProt Q9HAU4: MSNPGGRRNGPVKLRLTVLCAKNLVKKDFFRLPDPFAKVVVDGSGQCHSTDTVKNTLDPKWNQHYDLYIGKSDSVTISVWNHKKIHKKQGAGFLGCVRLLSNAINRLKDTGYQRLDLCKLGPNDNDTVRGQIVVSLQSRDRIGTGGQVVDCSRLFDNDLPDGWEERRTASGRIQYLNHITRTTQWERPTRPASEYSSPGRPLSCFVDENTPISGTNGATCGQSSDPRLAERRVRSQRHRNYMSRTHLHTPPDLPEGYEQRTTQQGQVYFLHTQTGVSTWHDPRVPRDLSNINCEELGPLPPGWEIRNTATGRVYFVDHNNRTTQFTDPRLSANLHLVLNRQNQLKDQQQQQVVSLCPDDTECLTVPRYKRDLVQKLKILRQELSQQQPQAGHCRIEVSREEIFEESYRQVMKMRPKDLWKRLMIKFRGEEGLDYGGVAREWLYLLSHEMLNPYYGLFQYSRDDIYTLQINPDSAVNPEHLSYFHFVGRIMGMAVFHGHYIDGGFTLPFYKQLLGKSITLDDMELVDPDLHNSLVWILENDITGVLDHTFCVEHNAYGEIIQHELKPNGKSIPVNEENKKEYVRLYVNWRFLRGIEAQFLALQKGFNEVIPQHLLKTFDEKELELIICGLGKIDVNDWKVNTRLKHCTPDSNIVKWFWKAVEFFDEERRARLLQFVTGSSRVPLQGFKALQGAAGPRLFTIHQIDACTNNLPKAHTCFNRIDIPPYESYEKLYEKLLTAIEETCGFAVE
Myc-tagged WW-domains of Smurf2: residues 143-334 of Q9HAU4
UniProt Q6XP49: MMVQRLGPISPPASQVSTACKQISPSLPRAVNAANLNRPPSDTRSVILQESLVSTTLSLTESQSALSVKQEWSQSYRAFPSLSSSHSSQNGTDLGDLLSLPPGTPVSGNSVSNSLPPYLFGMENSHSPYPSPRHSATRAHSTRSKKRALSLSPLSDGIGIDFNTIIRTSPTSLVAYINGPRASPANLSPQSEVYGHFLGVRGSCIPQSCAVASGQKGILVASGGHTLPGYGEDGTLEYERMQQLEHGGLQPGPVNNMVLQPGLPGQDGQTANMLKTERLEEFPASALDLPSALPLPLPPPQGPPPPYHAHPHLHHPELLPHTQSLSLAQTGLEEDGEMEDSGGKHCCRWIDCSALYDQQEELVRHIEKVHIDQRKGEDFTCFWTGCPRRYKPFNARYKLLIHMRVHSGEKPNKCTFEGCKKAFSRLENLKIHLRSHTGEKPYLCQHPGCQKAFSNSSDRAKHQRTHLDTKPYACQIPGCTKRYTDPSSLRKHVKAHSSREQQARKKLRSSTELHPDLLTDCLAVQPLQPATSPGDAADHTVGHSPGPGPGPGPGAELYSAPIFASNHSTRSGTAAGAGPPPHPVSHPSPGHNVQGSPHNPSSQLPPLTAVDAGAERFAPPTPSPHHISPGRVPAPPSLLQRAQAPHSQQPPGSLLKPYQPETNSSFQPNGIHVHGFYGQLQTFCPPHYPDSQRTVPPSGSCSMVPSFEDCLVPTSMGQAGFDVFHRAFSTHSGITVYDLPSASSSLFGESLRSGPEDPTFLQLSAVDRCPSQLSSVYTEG
UniProt Q9DBH0, residues 395-453: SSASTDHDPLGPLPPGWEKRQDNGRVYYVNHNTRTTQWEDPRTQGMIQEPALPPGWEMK
UniProt A2A5Z6, residues 150-328: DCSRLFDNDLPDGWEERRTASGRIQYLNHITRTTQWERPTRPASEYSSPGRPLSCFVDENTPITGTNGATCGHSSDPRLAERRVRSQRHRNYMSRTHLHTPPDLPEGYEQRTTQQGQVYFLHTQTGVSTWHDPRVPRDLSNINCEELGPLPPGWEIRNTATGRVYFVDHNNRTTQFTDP

For one assay, the target named is Myc-Itch-C832G (mouse) (UniProt Q8C863). Put plainly: co-IP; HEK293T co-transfected with FLAG-Glis3 constructs and Myc-tagged ligases; lysis in 25 mM Tris, 150 mM NaCl, 1 mM EDTA, 1 mM EGTA, 0.5% Nonidet P-40; IP with anti-Myc on Dynabeads, 10 min RT; blot with anti-M2 FLAG-HRP.
A further assay addresses Myc-NEDD4-C867G (UniProt P46935). Described as above.
The next assay has as its target Myc-Smurf2-C716G (UniProt Q9HAU4). Described as above.
The target in assay [1] is Glis3(2–500)-LexA fusion protein (mouse) (UniProt F6SGN4). The assay is described as follows: two-hybrid; Hybrigenics screen; Glis3 N-terminus-LexA bait (pB27) against a murine pancreatic beta cell (βTC-TET) library in p6; medium without His, Leu, Trp, with 5.0 mM 3-aminotriazole.
In a further assay the target is TnT-Myc Itch (mouse) (UniProt Q8C863). Put plainly: pull-down; both proteins transcribed and translated in vitro (TNT); Myc-Itch held on anti-Myc Dynabeads in PBS (30 min RT), FLAG-Glis3 or PY^461 mutant added overnight at 4°C; blot with anti-M2 FLAG-HRP.
Assay [2] addresses Itch-Δ-C2 (aa 274–806) (mouse) (UniProt Q8C863). Put plainly: co-IP; HEK293T co-transfected with FLAG-Glis3 constructs and Myc-tagged ligases; lysis in 25 mM Tris, 150 mM NaCl, 1 mM EDTA, 1 mM EGTA, 0.5% Nonidet P-40; IP with anti-Myc on Dynabeads, 10 min RT; blot with anti-M2 FLAG-HRP.
The target of assay [3] is Itch-Δ-HECT (aa 1–477) (mouse) (UniProt Q8C863). The assay is described as above.
In the next assay the target is Myc-Itch (mouse) (UniProt Q8C863). The assay is described as above.
For assay [4], the target named is Myc-tagged WW-domains of Itch (aa 274–477) (mouse) (UniProt Q8C863). Described as above.
For assay [5], the target named is Myc-tagged WW-domains of NEDD4 (aa 238–497) (UniProt P46935). Described as above.
The target of assay [6] is Myc-tagged WW-domains of Smurf2 (aa 143–334) (UniProt Q9HAU4). The assay is described as above.

No constants are given. Whether binding was seen depends on the method and setting. Binding calls can cover weak binding; strength is not graded here. For some assays here: Binding seen in cells or lysates may run through a third protein.

Take “FLAG-Glis3-ΔC480 PY^461 mutant (from UniProt Q6XP49) (domain or fragment)”: the binding entry in the assay with Myc-Itch-C832G (mouse), in the assay with Myc-NEDD4-C867G and in the assay with Myc-Smurf2-C716G was “no binding” throughout.
On to “Nedd4 (393–444), two-hybrid prey (from UniProt P46935 393-444) (domain or fragment)”, for which, in assay [1], the binding entry is “binds”.
Regarding “Wwp2 (395–453), two-hybrid prey (from UniProt Q9DBH0 395-453) (domain or fragment)”, the binding entry in [1] is recorded as “binds”.
On to “Itch (224–462), two-hybrid prey (from UniProt Q8C863 224-462) (domain or fragment)”, for which the binding entry in assay [1] is listed as “binds”.
Take TnT-FLAG Glis3 (from UniProt F6SGN4): in the assay with TnT-Myc Itch (mouse), the binding entry is “binds”.
“FLAG-tagged Glis3 (pCMV10-3xFLAG-Glis3) (from UniProt F6SGN4)”: the binding entry is reported as “binds” in [2]; “binds” in [3]; “binds” with Myc-Itch (mouse); “binds” with Myc-Itch-C832G (mouse); “no binding” with Myc-NEDD4-C867G; “binds weakly” with Myc-Smurf2-C716G. In addition, the binding result in assay [4], in assay [5] and in [6] was “binds” throughout.
For the substance “Smurf2 (150–328), two-hybrid prey (from UniProt A2A5Z6 150-328) (domain or fragment)”, the binding result in [1] is recorded as “binds”.
Take “FLAG-Glis3-ΔC480 (from UniProt Q6XP49) (domain or fragment)”: the binding result with Myc-Itch-C832G (mouse), with Myc-NEDD4-C867G and with Myc-Smurf2-C716G was “binds” each time.
